Measurements published in patent publication US20190194345A1 (UNIVERSITY OF VIRGINIA PATENT FOUNDATION, published 2019).

By UniProt entry, the sequences of proteins in these tests, tags left out. Where a name states a change or a piece, a line headed by the entry shows the natural chain unless it says otherwise.
UniProt Q6HA08: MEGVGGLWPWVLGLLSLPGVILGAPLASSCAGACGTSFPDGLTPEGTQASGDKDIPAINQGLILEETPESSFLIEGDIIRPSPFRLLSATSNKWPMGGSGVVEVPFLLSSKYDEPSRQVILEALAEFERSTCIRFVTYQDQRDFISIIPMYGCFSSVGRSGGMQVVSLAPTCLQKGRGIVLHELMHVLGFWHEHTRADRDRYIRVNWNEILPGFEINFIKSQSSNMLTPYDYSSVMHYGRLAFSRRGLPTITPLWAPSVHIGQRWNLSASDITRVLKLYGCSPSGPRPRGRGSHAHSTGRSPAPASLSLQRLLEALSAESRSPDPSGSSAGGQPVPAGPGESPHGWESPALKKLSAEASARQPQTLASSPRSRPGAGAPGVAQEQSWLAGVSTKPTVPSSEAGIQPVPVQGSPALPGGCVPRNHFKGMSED

Experiments:
[1] = molecular target: mCherry-SAS1B fusion protein (human); experiment: Western blot of cell lysates (lane: COS cells with the SAS1B-mCherry construct lacking the signal peptide), mAb 1 µg/ml
[2] = molecular target: recombinant SAS1B splice variant C (aa 1-436) (human) (UniProt Q6HA08); experiment: western blot (FIG. 22)

| Binder | binding [1] | binding [2] |
| --- | --- | --- |
| anti-human SAS1B murine monoclonal antibody SB4 (antibody, IgG2a, V domains shown, Mouse hybridoma antibody, isotype IgG2a-k; also called SB4 mAb) VH: EVQLQQSGPELVKPGSSVKISCKPSGYTFTDYNMVWMKQSHGKSLEWIGAINPNNGGTTYNQKFKGKATLTVDKSSSTAYMELRSLTSEDSAVYYCAPNWDWFAYWGQGTLVTVSA VL: DVLMTQTPLSLPVSLGDQASISCRSSQSILHSNGNTYLEWYLQKPGQSPKLLIYKVSNRFSGVPDRFSGSGSGTDFTLKISRVEAEDLGVYYCFQGSHVPFTFGSGTKLEIK | binds | binds |
| anti-human SAS1B murine monoclonal antibody SB6 (antibody, IgG2b, V domains shown) VH: EVQLQQSGPELVKPGSSVKISCKPSGYTFTDYNMVWMKQSHGKSLEWIGAINPNNGGTTYNQKFKGKATLTVDKSSSTAYMELRSLTSEDSAVYYCAPNWDWFAYWGQGTLVTVSA VL: DVLMTQIPLSLPVSLGDQASISCRSSQSILHSNGNTYLEWYLQKPGQSPKLLIYKVSNRFSGVPDRFSGSGSGTDFTLKISRVEAEDLGVYYCFQGSHVPFTFGSGTKLEIK | binds | binds |
| anti-human SAS1B murine monoclonal antibody SB2 (antibody, IgG2b, V domains shown, also called SB2 mAb) VH: EVQLQQSGPELVKPGSSVKISCKASGYTFTDYNMVWVKQSHGKSLEWIGAVNPNNGGTSYNQKFKGKATLTVDKSSSTAYMELRSLTSEDSAVYYCVPNWDWFAYWGQGTLVTVSA VL: DVLMTQTPLSLPVSLGDQASISCRSSQSLVHSNGNTYLEWYLQKPGQSPNLLIYKVSNRFSGVPDRFSGSGSGTDFTLKISRVEAEDLGVYYCFQGSHVPFTFGSGTKLEIK | binds | binds |
| anti-human SAS1B murine monoclonal antibody SB3 (antibody, IgG2b, V domains shown, also called SB3 mAb) VH: EVQLQQSGPELVKPGSSVKISCKASGYTFTDYNMVWVKQSHGKSLEWIGAVNPNNGGTSYNQKFKGKATLTVDKSSSTAYMELRSLTSEDSAVYYCVPNWDWFAYWGQGTLVTVSA VL: DVLMTQTPLSLPVSLGDQASISCRSSQSLVHSNGNTYLEWYLQKPGQSPNLLIYKVSNRFSGVPDRFSGSGSGTDFTLKISRVEAEDLGVYYCFQGSHVPFTFGSGTKLEIK | binds | binds |

Now from value to binder:

| binding [1] | binding [2] | Binder |
| --- | --- | --- |
|  | binds | anti-human SAS1B murine monoclonal antibody SB5 (antibody, IgG2b, V domains shown, Mouse hybridoma antibody, isotype IgG2b-k; also called SB5 mAb) VH: EVQLQQSGPELVKPGSSVKISCKPSGYTFTDYNMVWMKQSHGKSLEWIGAINPNNGGTTYNQKFKGKATLTVDKSSSTAYMELRSLTSEDSAVYYCAPNWDWFAYWGQGTLVTVSA VL: DVLMTQIPLSLPVSLGDQASISCRSSQSILHSNGNTYLEWYLQKPGQSPKLLIYKVSNRFSGVPDRFSGSGSGTDFTLKISRVEAEDLGVYYCFQGSHVPFTFGSGTKLEIK |
| binds | binds | anti-human SAS1B murine monoclonal antibody SB7 (antibody, IgG2b, V domains shown) VH: EVQLQQSGPELVKPGSSVKISCKPSGYTFTDYNMVWMKQSHGKSLEWIGAINPNNGGTTYNQKFKGKATLTVDKSSSTAYMELRSLTSEDSAVYYCAPNWDWFAYWGQGTLVTVSA VL: DVLMTQIPLSLPVSLGDQASISCRSSQSILHSNGNTYLEWYLQKPGQSPKLLIYKVSNRFSGVPDRFSGSGSGTDFTLKISRVEAEDLGVYYCFQGSHVPFTFGSGTKLEIK |

These are yes or no findings as the source states them, for the method shown. A result given as binding can be weak or reduced; the word gives no strength.
